# In PMC6453939:
# Results are given in words; binding and its absence hold for the method and conditions named. Binding seen in cells or lysates may run through a third protein. These calls come from enrichment with a bait or labelling near it, and not all partners need be listed.
# B1: Vps51 (protein, UniProt Q9UID3 1-782)
# chain: MAAAAAAGPSPGSGPGDSPEGPEGEAPERRRKAHGMLKLYYGLSEGEAAGRPAGPDPLDPTDLNGAHFDPEVYLDKLRRECPLAQLMDSETDMVRQIRALDSDMQTLVYENYNKFISATDTIRKMKNDFRKMEDEMDRLATNMAVITDFSARISATLQDRHERITKLAGVHALLRKLQFLFELPSRLTKCVELGAYGQAVRYQGRAQAVLQQYQHLPSFRAIQDDCQVITARLAQQLRQRFREGGSGAPEQAECVELLLALGEPAEELCEEFLAHARGRLEKELRNLEAELGPSPPAPDVLEFTDHGGSGFVGGLCQVAAAYQELFAAQGPAGAEKLAAFARQLGSRYFALVERRLAQEQGGGDNSLLVRALDRFHRRLRAPGALLAAAGLADAATEIVERVARERLGHHLQGLRAAFLGCLTDVRQALAAPRVAGKEGPGLAELLANVASSILSHIKASLAAVHLFTAKEVSFSNKPYFRGEFCSQGVREGLIVGFVHSMCQTAQSFCDSPGEKGGATPPALLLLLSRLCLDYETATISYILTLTDEQFLVQDQFPVTPVSTLCAEARETARRLLTHYVKVQGLVISQMLRKSVETRDWLSTLEPRNVRAVMKRVVEDTTAIDVQVGLLYEEGVRKAQSSDSSKRTFSVYSSSRQQGRYAPSYTPSAPMDTNLLSNIQKLFSERIDVFSPVEFNKVSVLTGIIKISLKTLLECVRLRTFGRFGLQQVQVDCHFLQLYLWRFVADEELVHLLLDEVVASAALRCPDPVPMEPSVVEVICERG
# Target: T1, syntaxin 6 (Stx6), full-length, reconstituted in liposomes (Rattus norvegicus) (UniProt Q63635)
# T1 sequence: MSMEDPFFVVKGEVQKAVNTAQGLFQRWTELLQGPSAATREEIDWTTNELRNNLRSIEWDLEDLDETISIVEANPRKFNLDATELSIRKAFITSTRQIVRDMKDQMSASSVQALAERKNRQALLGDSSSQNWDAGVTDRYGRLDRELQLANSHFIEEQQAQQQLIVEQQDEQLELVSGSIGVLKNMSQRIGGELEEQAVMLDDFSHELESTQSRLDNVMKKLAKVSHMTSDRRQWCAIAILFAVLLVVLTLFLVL
# Assay: affinity purification with mass spectrometry; SNARE-containing proteoliposomes incubated with HeLa cytosol fraction 30 min at 37 °C; liposomes separated (flotation gradient in the results, streptavidin Dynabeads via biotinyl Cap PE in the methods), washed with HB150 (150 mM KCl, 20 mM HEPES pH 7.5); bound proteins identified by proteomics; only the target purified
binder,measurement,value
B1,binding,binds
